This passage reports binding results from paper PMC11418137.

Chains of the proteins cited; added tags and fusions are not shown. Lines headed by an entry give the natural chain unless they say otherwise; changes in a name come on top. Residues count along the entry.
UniProt P31358: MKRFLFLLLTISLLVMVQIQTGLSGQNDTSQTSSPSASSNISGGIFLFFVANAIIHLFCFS
UniProt P09693, residues 23-182: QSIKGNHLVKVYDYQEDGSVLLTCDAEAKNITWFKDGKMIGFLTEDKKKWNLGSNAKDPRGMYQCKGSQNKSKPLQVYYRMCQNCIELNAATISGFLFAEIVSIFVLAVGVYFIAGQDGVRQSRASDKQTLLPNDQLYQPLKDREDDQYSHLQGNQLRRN
UniProt P06127, residues 25-495: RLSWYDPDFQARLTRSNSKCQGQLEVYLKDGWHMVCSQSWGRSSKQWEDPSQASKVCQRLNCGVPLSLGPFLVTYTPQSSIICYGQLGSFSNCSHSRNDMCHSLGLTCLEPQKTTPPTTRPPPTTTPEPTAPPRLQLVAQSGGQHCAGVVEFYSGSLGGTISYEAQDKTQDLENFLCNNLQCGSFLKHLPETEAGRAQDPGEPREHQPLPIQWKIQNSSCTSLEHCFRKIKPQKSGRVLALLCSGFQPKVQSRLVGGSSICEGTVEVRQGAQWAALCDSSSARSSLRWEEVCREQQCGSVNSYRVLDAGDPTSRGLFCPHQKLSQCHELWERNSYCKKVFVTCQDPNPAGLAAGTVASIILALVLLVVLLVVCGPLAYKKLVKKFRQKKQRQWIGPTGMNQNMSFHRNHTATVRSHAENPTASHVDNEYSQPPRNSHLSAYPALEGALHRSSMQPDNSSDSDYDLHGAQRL

Results are given in words; binding and its absence hold for the method and conditions named. Binding seen in cells or lysates may run through a third protein. Here binding means that the protein was enriched with, or labelled near, the bait; the list need not be complete. No binding means not detected with the bait.

The target of this assay is T1, membrane-bound CD52 of CD4+ T cells (human (endogenous in CD4+ T cells of patients)) (UniProt P31358).
T1 sequence: GQNDTSQTSSPS
Description: proximity labelling; AD CD4+ T cells (n = 4) stained with HRP-conjugated anti-human CD52 antibody or IgG1 isotype; 95 μM tyramide-SS-biotin, 0.01% hydrogen peroxide, on ice 2 min; biotinylated proteins on streptavidin Dynabeads, LC-MS quantitative proteomics; labels proteins within a 20–100 nm radius of CD52.

Turning to “CD3γ of CD4+ T cells (from UniProt P09693 23-182) (receptor)”, the binding result was “no binding”. Then “CD5 of CD4+ T cells (from UniProt P06127 25-495)”, with “no binding”.
